From article PMC4268694
Results are given in words; binding and its absence hold for the method and conditions named. Binding seen in cells or lysates may run through a third protein. Some results given as binding are weak or reduced against the parent protein; the word gives no strength. For part of these data: Tags and fused reporters may be left off the sequences shown.

Amino acid sequences for entries named in this document (tags omitted).
UniProt Q13535: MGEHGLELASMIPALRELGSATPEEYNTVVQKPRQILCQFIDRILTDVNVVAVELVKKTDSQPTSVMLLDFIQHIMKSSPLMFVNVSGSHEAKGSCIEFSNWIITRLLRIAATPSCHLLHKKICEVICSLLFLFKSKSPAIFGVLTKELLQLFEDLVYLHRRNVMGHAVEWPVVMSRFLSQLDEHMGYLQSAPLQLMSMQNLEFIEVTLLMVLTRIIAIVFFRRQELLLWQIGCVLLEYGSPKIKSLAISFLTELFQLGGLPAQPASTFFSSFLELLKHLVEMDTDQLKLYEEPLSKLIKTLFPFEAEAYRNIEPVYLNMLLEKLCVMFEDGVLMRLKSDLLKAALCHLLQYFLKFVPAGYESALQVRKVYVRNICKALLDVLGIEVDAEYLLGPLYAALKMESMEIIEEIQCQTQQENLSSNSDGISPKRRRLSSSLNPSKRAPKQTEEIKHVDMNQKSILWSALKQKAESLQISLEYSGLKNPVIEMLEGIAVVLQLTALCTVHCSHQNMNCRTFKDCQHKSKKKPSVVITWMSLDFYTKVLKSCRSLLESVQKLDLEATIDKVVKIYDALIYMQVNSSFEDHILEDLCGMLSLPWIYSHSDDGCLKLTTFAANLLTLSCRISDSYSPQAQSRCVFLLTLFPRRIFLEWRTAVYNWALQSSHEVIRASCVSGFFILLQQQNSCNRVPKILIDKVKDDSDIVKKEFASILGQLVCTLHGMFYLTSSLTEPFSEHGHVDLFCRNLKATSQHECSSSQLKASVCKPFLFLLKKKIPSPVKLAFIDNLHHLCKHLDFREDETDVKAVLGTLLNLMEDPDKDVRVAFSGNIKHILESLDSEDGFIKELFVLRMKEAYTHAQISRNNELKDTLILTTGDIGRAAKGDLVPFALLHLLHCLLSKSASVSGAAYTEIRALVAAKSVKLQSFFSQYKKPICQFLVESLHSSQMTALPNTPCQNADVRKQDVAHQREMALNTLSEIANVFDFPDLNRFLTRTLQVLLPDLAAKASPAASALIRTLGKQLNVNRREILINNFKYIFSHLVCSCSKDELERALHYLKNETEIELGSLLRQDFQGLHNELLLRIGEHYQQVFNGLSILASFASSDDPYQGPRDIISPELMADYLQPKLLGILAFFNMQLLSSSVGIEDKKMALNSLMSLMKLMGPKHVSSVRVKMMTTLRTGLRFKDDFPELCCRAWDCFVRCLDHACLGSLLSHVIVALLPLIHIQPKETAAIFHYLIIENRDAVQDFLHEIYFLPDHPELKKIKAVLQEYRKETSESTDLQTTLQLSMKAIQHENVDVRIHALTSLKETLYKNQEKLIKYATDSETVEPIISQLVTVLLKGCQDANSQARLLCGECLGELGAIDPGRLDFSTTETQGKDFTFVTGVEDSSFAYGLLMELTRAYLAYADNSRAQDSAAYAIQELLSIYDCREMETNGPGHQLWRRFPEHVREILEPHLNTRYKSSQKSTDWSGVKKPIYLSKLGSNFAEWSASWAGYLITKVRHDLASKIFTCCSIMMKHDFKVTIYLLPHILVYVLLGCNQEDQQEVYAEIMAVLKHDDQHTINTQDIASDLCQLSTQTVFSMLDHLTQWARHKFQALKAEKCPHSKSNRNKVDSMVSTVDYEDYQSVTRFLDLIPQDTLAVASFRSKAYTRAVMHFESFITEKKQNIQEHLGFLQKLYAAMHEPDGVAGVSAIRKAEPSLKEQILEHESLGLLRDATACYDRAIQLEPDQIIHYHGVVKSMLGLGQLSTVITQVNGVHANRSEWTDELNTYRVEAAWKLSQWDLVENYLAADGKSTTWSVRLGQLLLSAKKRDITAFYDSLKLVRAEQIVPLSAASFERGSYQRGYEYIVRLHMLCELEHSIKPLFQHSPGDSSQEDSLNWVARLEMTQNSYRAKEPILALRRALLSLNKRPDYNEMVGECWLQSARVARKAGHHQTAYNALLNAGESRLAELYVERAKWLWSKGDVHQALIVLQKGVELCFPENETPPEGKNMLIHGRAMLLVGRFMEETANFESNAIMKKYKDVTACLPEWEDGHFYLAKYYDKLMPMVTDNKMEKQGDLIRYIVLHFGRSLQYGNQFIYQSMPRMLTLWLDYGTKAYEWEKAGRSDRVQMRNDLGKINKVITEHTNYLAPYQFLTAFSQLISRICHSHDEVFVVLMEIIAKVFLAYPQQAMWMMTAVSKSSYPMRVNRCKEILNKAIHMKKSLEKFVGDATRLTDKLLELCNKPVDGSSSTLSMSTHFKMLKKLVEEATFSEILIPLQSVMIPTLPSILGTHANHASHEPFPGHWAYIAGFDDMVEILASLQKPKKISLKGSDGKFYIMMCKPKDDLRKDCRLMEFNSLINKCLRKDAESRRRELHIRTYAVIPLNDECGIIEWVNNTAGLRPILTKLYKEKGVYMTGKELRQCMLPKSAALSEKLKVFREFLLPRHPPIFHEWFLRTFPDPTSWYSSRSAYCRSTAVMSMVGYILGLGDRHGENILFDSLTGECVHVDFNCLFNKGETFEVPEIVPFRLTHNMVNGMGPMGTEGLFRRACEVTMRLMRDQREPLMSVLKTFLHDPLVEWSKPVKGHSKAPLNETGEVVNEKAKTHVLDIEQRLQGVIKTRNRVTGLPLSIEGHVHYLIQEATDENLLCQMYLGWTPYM

Experiments:
[1] = molecular target: T1, Biotin-tagged unmethylated H2AX peptide (amino acids 121-142) (human); assay: pull-down; biotin-tagged H2AX peptides mixed with whole-cell lysate of doxorubicin-treated HeLa cells in kinase buffer (50 mM HEPES pH 7.5, 50 mM KCl, 5 mM MgCl2, 10% glycerol, 1 mM ATP, 1 mM DTT), 90 min at 30 C; precipitated with Dynabeads M-280 streptavidin; blotted with anti-ATR and anti-phospho-ATM; only the target purified
T1 sequence (peptide, biotin on the N-terminus): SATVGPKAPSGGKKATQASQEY

[2] = molecular target: T2, Biotin-tagged methylated H2AX peptide (K134 dimethylated, amino acids 121-142) (human); assay: as above
T2 sequence (peptide, dimethyl-lysine at K134 ([me2K]); biotin on the N-terminus): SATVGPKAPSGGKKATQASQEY

[3] = molecular target: FLAG-H2AX-WT (wild-type histone H2AX) (human) (UniProt P16104); assay: co-IP; HeLa cells co-expressing FLAG-H2AX (WT or K134A) and HA-SUV39H2, treated with 1 uM doxorubicin 48 h post transfection; lysed in CelLytic M; IP with anti-FLAG M2 agarose, washed in TBS pH 7.6; blotted with anti-phospho-ATM and anti-ATR

Measured: binding

ATR (ataxia telangiectasia and Rad3-related) (from UniProt Q13535 1-2644) (enzyme)
binds: [1] | [2] | [3]
